# Measured values taken from the supplement of paper PMC12067093, “Discovery and optimisation of a covalent ligand for TRIM25 and its application to targeted protein ubiquitination” (Chemical Science, 2025).
# Protein sequences, listed by entry. Tags and fused reporters are not part of them. Lines headed by an entry give the natural chain unless they say otherwise; changes in a name come on top.
# UniProt P55265: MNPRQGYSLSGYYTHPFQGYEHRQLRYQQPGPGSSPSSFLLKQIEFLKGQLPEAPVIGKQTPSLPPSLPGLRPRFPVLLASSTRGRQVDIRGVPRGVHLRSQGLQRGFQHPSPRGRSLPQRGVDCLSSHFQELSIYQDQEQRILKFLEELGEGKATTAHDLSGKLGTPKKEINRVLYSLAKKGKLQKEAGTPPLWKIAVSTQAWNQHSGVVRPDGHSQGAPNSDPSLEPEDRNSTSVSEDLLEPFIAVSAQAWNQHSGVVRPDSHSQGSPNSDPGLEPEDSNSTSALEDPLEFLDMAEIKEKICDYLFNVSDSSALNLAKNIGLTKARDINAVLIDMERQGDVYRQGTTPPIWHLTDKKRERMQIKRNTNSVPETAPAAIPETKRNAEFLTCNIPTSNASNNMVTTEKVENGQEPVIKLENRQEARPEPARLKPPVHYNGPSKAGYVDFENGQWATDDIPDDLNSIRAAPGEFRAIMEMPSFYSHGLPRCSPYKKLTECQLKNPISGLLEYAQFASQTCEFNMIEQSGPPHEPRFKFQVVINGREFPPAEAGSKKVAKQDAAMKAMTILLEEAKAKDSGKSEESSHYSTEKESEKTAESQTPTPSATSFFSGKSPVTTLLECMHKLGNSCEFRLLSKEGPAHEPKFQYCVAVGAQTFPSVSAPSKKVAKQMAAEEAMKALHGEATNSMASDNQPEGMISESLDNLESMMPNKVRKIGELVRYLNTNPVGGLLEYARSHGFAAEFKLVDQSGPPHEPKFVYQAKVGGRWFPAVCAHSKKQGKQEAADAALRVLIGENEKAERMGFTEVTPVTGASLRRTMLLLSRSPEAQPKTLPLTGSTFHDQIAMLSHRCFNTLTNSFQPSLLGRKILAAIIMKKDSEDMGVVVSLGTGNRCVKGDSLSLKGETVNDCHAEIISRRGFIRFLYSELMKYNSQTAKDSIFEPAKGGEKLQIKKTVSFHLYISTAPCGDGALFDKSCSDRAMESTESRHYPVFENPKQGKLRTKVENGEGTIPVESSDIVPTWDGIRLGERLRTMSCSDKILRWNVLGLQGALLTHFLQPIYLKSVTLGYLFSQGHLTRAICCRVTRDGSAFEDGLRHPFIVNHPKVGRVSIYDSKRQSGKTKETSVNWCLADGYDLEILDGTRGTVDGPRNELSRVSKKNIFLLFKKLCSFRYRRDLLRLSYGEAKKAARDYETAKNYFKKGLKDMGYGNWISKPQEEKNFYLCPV
# UniProt O60488: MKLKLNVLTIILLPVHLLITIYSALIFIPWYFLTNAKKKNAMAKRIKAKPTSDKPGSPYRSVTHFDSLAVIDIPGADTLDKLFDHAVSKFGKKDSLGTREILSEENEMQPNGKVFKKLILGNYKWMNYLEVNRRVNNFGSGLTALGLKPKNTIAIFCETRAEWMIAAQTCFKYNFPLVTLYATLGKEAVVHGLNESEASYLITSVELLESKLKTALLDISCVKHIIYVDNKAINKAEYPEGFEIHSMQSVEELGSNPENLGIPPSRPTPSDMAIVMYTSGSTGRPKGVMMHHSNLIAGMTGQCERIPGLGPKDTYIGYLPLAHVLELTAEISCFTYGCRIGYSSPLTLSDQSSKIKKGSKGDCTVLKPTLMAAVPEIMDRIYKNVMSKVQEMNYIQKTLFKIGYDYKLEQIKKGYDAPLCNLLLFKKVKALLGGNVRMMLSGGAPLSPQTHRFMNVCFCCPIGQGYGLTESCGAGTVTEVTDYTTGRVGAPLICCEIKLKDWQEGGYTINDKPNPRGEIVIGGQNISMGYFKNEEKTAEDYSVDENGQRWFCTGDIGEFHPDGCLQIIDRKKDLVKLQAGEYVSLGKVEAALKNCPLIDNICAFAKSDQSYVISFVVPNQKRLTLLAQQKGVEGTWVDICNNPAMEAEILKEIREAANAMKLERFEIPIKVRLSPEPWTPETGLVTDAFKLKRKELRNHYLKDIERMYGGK
# UniProt Q16186: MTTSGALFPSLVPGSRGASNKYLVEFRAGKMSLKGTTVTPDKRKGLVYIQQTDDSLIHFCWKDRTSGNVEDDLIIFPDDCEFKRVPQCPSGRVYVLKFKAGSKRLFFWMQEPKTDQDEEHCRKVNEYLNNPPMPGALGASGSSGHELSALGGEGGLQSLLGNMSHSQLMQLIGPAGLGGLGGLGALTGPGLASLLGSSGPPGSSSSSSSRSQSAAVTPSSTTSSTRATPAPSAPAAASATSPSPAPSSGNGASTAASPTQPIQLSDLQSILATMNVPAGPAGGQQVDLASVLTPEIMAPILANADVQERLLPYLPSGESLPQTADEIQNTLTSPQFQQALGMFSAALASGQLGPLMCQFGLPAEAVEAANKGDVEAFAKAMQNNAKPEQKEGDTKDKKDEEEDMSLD
# UniProt O15254: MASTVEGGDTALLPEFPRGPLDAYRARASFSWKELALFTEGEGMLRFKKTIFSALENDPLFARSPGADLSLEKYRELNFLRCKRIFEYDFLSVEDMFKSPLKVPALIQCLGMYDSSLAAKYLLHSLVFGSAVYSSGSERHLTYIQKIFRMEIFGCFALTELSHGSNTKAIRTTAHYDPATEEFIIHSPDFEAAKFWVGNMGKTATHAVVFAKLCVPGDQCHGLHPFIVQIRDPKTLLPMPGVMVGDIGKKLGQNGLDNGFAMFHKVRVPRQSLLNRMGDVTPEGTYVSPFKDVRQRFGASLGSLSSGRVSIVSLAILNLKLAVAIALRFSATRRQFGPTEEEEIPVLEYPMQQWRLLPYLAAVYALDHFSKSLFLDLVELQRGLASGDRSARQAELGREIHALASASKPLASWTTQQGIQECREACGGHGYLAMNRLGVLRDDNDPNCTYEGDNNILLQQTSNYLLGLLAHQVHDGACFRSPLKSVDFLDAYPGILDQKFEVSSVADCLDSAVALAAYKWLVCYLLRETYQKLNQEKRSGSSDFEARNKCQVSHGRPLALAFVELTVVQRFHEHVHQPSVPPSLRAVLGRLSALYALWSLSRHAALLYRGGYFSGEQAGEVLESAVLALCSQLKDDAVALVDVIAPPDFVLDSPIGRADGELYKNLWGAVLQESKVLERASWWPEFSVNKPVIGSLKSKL
# UniProt O95490: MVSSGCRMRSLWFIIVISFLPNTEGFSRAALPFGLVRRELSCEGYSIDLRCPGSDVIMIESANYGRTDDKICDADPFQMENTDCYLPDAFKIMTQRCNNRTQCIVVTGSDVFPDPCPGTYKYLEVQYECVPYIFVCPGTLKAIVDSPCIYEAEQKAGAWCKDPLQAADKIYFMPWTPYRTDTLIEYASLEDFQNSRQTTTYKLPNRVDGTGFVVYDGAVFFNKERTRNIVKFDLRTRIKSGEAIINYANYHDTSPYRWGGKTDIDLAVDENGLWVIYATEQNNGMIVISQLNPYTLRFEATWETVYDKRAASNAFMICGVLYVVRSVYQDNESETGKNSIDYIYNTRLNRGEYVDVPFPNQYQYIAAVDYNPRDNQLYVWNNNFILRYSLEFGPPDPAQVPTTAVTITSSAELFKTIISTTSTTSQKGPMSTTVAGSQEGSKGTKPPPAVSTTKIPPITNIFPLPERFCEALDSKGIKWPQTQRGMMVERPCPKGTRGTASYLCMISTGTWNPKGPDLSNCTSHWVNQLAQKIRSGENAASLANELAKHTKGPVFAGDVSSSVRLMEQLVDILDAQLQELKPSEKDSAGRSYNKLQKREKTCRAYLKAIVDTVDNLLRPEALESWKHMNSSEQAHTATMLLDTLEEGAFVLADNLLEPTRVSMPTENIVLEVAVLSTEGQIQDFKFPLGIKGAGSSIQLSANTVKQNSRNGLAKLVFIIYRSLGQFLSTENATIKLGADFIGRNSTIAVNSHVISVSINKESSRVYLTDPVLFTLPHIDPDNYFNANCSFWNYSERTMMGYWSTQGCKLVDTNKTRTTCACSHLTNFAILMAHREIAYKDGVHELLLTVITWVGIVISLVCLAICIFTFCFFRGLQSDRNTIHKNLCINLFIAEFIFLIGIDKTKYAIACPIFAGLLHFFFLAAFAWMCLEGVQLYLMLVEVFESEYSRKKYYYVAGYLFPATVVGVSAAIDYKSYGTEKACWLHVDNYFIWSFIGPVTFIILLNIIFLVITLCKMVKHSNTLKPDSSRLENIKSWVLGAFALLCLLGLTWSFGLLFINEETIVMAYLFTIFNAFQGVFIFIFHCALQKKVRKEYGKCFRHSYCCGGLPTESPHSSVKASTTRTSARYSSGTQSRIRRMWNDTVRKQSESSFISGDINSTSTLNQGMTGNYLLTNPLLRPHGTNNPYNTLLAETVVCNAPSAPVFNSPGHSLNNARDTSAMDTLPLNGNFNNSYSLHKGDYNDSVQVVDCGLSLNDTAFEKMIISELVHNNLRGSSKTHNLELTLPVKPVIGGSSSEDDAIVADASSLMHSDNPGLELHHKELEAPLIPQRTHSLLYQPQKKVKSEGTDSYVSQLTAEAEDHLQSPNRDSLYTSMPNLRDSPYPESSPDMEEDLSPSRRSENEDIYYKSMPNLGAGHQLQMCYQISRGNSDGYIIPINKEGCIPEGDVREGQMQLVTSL
# UniProt P11766: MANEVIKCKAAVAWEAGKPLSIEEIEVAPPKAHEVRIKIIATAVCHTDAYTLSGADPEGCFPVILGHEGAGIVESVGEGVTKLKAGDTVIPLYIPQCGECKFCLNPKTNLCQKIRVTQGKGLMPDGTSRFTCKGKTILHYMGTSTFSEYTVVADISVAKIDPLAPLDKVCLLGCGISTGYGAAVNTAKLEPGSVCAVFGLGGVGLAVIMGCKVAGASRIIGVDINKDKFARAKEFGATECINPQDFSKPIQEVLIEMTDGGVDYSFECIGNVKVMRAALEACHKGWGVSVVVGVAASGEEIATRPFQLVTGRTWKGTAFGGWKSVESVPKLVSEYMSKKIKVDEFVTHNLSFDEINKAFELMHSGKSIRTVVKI
# UniProt P30520: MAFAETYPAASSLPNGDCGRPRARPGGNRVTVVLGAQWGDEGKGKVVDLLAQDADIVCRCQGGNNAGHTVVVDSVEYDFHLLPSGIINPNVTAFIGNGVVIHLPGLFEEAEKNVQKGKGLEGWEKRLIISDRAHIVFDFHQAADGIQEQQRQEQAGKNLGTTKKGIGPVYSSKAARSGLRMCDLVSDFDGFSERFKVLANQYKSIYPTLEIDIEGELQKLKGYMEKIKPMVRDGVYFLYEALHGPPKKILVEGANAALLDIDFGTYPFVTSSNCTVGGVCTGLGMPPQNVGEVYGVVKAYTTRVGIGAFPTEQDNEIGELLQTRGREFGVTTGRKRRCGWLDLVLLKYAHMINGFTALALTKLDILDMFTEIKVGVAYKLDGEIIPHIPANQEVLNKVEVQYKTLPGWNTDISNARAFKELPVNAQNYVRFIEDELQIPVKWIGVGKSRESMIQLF
# UniProt P00813: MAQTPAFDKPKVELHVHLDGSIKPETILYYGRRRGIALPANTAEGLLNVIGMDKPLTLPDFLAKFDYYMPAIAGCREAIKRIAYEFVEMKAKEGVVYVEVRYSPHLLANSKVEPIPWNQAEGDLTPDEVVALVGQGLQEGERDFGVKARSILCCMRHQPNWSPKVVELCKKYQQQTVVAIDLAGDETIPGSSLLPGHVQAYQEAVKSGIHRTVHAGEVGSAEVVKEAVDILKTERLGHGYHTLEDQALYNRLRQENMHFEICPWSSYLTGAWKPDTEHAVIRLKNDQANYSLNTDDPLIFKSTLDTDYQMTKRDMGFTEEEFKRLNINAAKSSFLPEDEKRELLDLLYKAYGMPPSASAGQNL
# UniProt Q13444: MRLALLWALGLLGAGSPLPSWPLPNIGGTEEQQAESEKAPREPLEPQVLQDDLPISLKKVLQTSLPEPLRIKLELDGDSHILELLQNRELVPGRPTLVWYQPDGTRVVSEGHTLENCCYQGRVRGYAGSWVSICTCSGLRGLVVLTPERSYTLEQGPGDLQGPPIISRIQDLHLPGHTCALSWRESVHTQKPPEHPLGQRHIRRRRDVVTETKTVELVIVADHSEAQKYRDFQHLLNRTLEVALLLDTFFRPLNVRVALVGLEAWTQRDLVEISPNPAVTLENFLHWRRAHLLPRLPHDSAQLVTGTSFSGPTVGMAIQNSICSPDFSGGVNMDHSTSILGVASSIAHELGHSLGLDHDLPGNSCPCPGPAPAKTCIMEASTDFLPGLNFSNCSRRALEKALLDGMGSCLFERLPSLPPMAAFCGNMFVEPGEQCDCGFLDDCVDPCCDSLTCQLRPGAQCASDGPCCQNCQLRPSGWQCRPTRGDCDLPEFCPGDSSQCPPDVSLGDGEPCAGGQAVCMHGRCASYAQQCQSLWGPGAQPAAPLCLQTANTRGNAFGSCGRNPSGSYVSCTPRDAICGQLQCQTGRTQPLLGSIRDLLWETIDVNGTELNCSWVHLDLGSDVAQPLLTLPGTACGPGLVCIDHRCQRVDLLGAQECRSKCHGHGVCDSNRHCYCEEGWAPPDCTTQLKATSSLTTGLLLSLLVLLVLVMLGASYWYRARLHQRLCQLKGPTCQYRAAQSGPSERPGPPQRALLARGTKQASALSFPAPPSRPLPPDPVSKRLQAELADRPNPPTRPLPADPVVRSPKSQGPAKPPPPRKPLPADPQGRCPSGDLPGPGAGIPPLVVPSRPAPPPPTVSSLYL
# This is one part of the list.
# Compound: CC1Cc2ccccc2N1C(=O)C1CCCN(C1)C(=O)CCl (mixture of isomers) [TRIM25 ligand 11 (diastereomer mixture)]
# Assay: probe-labelled cysteine peptide fold change vs DMSO (competition) (log2 fold change); higher = less target engagement (more negative = stronger competition)
# Details: THP-1, incubation time: 4 h
# 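Also: competitive chemoproteomic profiling in live THP-1 cells with an iodoacetamide desthiobiotin (IA-DTB) probe, comparing probe-labelled peptide intensities in compound-treated cells against DMSO-treated controls.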
Target,probe-labelled cysteine peptide fold change (10 µM),probe-labelled cysteine peptide fold change (50 µM)
ADAR_P55265_909_GDSLSLKGETVNDCHAEIISR (UniProt P55265),-0.336,-0.181
ACSL4_O60488_420_GYDAPLCNLLLFKK (UniProt O60488),-0.314,-0.314
ADRM1_Q16186_60_GLVYIQQTDDSLIHFCWK (UniProt Q16186),-0.0188,-0.0557
ACOX3_O15254_426_EACGGHGYLAMNR (UniProt O15254),0.0386,-0.0932
ACTR3_P61158_8+12_LPACVVDCGTGYTK (UniProt P61158),0.0365,-0.138
ADGRL2_O95490_42_RELSCEGYSIDLR (UniProt O95490),0.0113,0.0942
AFF4_Q9UHB7_315_IPSQPLDASASGDVSCVDEILK (UniProt Q9UHB7),-0.0997,-0.227
AGA_P20933_163_NCQPNYWR (UniProt P20933),-0.0466,-0.0578
ADH5_P11766_97+100_AGDTVIPLYIPQCGECK (UniProt P11766),0.0312,-0.0722
ADSS_P30520_18_AFAETYPAASSLPNGDCGRPR (UniProt P30520),-0.311,-0.0817
ACTR2_P61160_20_CGYAGSNFPEHIFPALVGRPIIR (UniProt P61160),-0.0468,-0.017
ADA_P00813_262_QENMHFEICPWSSYLTGAWKPDTEHAVIR (UniProt P00813),-0.00691,-0.138
ACTG1_P63261_17_EEEIAALVIDNGSGMCK (UniProt P63261),-0.119,-0.314
ADAM15_Q13444_179_IQDLHLPGHTCALSWR (UniProt Q13444),-0.0675,0.0443

# Exported as tab-separated lines: entries from further up
Target	probe-labelled cysteine peptide fold change (10 µM)	probe-labelled cysteine peptide fold change (50 µM)
ADSS_P30520_18_AFAETYPAASSLPNGDCGRPR (UniProt P30520)	-0.311	-0.0817
ACTR2_P61160_20_CGYAGSNFPEHIFPALVGRPIIR (UniProt P61160)	-0.0468	-0.017
ADA_P00813_262_QENMHFEICPWSSYLTGAWKPDTEHAVIR (UniProt P00813)	-0.00691	-0.138
